According to the supplement of paper PMC12823440, “Inhibitors supercharge kinase turnover through native proteolytic circuits” (Nature, 2025):
Where a name gives a salt, the structure may show the parent alone. Some of the results follow. Hit calls seldom repeat between salt and free forms of one compound.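 Kinases were expressed as nanoluciferase fusions in K562 cells and luminescence was read every 4 h between 2 and 18 h as percent of control, DMSO set to 100% and a positive control to 0%. A time point counts as decreased when the signal drops significantly (2 sigma). The hit call is the authors' own, does not follow from the count of time points alone, and its rule is not shown.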

Protein sequences, listed by entry. Tags and fused reporters are not part of them. Lines headed by an entry give the natural chain unless they say otherwise; changes in a name come on top.
UniProt Q9UM73: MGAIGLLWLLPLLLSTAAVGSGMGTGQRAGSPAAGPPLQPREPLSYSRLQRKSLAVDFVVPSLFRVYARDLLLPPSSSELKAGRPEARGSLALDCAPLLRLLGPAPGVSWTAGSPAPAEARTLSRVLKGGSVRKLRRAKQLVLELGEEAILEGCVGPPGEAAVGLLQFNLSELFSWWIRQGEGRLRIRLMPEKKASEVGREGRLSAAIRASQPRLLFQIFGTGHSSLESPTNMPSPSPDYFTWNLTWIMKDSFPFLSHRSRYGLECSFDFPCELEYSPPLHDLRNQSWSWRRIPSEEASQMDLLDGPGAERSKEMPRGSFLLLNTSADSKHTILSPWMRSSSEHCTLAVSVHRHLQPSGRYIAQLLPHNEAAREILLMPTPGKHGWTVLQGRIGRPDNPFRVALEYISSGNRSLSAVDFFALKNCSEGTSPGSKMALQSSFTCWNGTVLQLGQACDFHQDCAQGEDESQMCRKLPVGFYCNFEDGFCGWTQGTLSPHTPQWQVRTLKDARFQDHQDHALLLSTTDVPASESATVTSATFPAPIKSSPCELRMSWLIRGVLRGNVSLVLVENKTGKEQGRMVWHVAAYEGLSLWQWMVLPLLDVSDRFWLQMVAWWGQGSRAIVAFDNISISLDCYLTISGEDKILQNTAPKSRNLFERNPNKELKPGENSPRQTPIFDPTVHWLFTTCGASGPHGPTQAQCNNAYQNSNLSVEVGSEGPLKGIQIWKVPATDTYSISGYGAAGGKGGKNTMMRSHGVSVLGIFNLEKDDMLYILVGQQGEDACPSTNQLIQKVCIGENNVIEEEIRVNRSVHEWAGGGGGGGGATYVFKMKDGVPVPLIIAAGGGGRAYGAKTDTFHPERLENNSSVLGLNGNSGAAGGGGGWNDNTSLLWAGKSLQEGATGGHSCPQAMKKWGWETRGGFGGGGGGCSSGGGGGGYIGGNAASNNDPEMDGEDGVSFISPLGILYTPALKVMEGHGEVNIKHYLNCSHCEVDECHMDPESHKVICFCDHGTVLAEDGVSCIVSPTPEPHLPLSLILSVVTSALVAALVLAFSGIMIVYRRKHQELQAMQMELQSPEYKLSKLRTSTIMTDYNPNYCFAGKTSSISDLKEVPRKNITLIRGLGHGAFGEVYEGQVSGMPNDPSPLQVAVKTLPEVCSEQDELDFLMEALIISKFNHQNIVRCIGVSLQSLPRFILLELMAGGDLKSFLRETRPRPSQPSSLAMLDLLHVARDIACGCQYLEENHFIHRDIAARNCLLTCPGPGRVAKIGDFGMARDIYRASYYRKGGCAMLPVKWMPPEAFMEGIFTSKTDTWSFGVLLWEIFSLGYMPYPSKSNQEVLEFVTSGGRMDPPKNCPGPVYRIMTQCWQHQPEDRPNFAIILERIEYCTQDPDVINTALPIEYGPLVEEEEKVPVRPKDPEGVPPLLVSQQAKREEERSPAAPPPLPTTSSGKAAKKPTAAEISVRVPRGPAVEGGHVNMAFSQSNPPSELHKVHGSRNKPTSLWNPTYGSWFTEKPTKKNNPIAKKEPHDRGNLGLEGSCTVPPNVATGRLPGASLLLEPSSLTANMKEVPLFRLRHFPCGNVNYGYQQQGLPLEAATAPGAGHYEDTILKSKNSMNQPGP
UniProt P10398: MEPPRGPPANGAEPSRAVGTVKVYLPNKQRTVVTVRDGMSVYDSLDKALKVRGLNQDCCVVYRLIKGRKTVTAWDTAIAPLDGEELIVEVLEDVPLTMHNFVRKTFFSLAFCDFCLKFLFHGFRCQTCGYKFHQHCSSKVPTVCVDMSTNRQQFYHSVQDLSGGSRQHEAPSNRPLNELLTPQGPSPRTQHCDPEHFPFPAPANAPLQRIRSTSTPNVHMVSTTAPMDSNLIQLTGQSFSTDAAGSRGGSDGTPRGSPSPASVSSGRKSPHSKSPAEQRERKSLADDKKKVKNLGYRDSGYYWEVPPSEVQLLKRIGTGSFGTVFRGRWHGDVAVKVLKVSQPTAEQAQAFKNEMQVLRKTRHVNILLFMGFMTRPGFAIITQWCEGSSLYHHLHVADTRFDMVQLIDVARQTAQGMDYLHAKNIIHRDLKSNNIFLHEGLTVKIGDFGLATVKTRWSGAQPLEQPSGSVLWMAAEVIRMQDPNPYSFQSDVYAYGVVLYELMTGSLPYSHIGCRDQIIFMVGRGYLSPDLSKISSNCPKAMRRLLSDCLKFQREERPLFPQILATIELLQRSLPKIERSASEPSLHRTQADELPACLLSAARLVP
UniProt O14965: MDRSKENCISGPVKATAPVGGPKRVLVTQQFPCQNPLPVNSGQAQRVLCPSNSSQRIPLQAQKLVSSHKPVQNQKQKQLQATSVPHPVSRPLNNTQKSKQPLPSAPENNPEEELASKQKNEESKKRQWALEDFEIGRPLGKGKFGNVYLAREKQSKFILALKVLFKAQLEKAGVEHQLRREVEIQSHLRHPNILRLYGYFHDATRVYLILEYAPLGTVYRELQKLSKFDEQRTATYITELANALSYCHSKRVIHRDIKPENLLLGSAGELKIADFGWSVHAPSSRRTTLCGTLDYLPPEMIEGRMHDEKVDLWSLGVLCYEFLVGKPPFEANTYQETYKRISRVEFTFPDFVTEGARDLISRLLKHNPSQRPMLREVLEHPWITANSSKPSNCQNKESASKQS
UniProt Q96GD4, whole entry: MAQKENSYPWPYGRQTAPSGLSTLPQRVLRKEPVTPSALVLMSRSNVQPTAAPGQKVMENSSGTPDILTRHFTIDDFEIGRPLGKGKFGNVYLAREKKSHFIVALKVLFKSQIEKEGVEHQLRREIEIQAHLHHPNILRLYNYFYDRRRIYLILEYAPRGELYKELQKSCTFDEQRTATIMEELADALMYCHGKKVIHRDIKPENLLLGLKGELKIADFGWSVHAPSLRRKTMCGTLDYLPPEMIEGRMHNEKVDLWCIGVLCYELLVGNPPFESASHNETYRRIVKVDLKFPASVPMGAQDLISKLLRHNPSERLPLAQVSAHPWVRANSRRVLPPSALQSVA
UniProt Q9UQB9: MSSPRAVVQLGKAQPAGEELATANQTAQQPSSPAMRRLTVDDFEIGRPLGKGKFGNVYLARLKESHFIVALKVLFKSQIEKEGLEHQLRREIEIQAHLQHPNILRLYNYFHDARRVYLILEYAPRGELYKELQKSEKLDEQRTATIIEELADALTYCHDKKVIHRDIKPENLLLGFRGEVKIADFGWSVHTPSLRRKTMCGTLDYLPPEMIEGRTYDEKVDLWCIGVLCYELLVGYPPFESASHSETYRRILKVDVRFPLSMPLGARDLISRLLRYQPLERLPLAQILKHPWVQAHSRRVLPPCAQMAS
UniProt P51451: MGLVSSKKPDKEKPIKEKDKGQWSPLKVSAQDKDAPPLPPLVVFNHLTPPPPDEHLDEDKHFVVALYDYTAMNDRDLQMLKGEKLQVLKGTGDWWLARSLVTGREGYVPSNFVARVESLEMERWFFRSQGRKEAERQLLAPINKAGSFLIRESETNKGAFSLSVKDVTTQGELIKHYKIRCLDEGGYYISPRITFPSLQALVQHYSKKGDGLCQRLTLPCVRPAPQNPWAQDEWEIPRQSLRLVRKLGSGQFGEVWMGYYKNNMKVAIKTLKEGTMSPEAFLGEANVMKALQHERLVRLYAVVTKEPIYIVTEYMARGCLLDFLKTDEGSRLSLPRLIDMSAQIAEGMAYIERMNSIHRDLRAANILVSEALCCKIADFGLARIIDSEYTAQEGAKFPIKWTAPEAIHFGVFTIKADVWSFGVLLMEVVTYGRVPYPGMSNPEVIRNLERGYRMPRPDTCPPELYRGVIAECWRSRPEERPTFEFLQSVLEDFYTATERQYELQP
UniProt P51813: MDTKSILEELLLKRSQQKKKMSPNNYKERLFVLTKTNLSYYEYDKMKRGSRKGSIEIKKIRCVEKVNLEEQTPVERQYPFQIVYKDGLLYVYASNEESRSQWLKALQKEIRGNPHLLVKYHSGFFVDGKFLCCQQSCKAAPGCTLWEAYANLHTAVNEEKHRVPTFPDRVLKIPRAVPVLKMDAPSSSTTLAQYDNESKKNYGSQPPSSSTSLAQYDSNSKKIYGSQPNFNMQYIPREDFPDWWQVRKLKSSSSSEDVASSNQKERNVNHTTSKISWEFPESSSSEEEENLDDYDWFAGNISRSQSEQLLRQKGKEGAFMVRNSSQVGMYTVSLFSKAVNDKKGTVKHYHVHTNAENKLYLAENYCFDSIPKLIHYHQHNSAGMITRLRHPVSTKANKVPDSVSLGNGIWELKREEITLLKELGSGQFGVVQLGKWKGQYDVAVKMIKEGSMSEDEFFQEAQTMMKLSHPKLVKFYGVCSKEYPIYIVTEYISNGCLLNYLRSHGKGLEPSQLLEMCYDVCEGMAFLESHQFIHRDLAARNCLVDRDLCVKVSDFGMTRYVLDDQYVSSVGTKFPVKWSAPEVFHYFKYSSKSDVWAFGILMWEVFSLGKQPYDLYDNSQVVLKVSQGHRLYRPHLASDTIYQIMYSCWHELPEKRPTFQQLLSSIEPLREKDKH
UniProt P15056, whole entry, looked up: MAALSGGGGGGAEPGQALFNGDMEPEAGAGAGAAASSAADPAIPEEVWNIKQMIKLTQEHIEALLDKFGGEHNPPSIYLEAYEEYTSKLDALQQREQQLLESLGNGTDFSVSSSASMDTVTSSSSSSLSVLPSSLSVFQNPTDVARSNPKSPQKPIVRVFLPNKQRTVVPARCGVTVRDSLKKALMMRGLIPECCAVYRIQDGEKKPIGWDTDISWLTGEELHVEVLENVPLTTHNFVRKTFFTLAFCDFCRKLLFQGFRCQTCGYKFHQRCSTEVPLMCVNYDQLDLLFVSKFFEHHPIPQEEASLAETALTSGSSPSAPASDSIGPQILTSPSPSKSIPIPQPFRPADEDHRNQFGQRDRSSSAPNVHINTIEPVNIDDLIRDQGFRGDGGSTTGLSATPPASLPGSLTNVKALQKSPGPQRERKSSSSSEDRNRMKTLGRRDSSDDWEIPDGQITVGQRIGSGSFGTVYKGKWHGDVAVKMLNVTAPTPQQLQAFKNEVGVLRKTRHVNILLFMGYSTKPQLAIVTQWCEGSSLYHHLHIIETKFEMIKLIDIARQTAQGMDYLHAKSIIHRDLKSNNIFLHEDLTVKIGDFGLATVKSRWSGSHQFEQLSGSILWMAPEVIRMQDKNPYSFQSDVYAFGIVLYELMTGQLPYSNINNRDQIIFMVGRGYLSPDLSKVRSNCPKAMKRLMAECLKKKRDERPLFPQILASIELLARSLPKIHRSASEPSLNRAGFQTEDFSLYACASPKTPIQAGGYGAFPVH
UniProt Q06187: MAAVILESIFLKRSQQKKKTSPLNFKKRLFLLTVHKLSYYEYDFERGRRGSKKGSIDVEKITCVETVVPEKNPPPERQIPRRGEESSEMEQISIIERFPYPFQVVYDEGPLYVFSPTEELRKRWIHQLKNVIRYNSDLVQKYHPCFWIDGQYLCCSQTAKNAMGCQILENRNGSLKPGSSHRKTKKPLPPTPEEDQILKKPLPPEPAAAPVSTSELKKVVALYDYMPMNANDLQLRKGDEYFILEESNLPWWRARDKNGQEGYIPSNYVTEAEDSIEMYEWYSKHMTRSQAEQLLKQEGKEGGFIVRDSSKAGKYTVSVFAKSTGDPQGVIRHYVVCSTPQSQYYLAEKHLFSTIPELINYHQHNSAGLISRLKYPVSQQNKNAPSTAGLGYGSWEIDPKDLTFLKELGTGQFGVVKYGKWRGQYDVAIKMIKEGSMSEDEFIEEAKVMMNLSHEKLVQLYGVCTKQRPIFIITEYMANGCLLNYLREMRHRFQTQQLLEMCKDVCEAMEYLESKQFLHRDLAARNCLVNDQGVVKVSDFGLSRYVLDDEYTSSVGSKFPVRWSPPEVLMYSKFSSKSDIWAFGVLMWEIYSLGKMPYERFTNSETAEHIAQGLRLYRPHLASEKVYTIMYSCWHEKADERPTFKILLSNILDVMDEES

Legend:
Assay in all cases: number of time points (of 5) at which kinase-Nluc abundance scored as decreased, DMSO-normalised (count); higher = more persistent destabilization
Settings in all cases: K562; 2-18 h
ALK = ALK (UniProt Q9UM73)
ARAF = ARAF (UniProt P10398)
AURKA = AURKA (UniProt O14965)
AURKB = AURKB (UniProt Q96GD4)
AURKC = AURKC (UniProt Q9UQB9)
BLK = BLK (UniProt P51451)
BMX = BMX (UniProt P51813)
BRAF = BRAF (UniProt P15056)
BRAF_V600E = test system: BRAF_V600E
BTK = BTK (UniProt Q06187)

Measured: number of time points

CC(C)(C)S(=O)(=O)c1cc2c(Nc3ccc4scnc4c3)ncnc2cc1OCCOP(=O)(O)O (2 µM)
0: all assays above

Nc1ccc(O)c(C(=O)O)c1 [5-Aminosalicylic Acid] (10 µM)
0: all assays above

Cc1cnc(Nc2ccc(F)cc2Cl)nc1-c1c[nH]c(C(=O)N[C@H](CO)c2cccc(Cl)c2)c1 (10 µM)
0: all assays above

S=C(NCc1ccc2c(c1)OCO2)N1CCN(c2ncnc3c2oc2ccccc23)CC1 [Amuvatinib] (2.5 µM)
1: BLK
0: all other assays above

N#C/C(=C/c1ccc(O)c(O)c1)C(=O)N1CCc2ccccc21 [Tyrphostin AG 528] (10 µM)
0: all assays above

N=C(NC(=N)N1CCCC1)Nc1ccc(OC(F)(F)F)cc1 (10 µM)
0: all assays above

Sorted by count of non-hydrogen atoms (largest number first): three of the compounds above
CC(C)(C)S(=O)(=O)c1cc2c(Nc3ccc4scnc4c3)ncnc2cc1OCCOP(=O)(O)O (2 µM)
0: all assays above

Cc1cnc(Nc2ccc(F)cc2Cl)nc1-c1c[nH]c(C(=O)N[C@H](CO)c2cccc(Cl)c2)c1 (10 µM)
0: all assays above

Nc1ccc(O)c(C(=O)O)c1 [5-Aminosalicylic Acid] (10 µM)
0: all assays above

Later entries:

Cc1nn(CC(F)(F)F)cc1Nc1ncc(Br)c(NCc2ccc(S(N)(=O)=O)cc2)n1 (10 µM)
0: all assays above

CS(=O)(=O)c1ccc([C@@H](CC2CCCC2)C(=O)Nc2nccs2)cc1 (10 µM)
0: all assays above

COC(=O)N1CCN(C2CCC(Nc3nc(Nc4cnn(C)c4)nc4ccc(CC#N)nc34)CC2)CC1 (stereo not given) (10 µM)
1: BRAF_V600E
0: all other assays above

Cc1ccc(C2CC(=O)NC(SCC(=O)Nc3nccs3)=C2C#N)cc1 (stereo not given) [Necrostatin-34] (10 µM)
0: all assays above

O=CN1CCN(c2ccc(C=C3C(=O)Nc4ccccc43)cc2)CC1 (10 µM)
0: all assays above

CCNC(=O)Nc1ccc(-c2nc3c(c(N4CCOC[C@@H]4C)n2)CCN(C2COC2)C3)cc1 (2.5 µM)
4: BRAF_V600E
1: BMX
0: all other assays above

Nc1ccc(C(=O)Nc2cccc(-c3nc(N4CCOCC4)c4oc5ncccc5c4n3)c2)cn1 (10 µM)
1: BRAF_V600E
0: all other assays above

C=CC(=O)N1CCC(c2ccc(C(N)=O)c(-c3ccc(Oc4ccccc4)cc3)n2)CC1 [Orelabrutinib] (2.5 µM)
0: all assays above

CC(C)c1cc2c(c(O)c1O)[C@@]13CCCC(C)(C)[C@@H]1C[C@@H]2OC3=O [Carnosol] (2.5 µM)
0: all assays above

COc1cc2ncnc(Nc3cc(Br)c(O)c(Br)c3)c2cc1OC (2.5 µM)
0: all assays above

O=C(Nc1ccnc(NC(=O)C2CC2)c1)c1c(Cl)cccc1Cl (10 µM)
1: AURKA | BLK
4: BRAF_V600E
0: all other assays above

Cc1cccc(-c2nn3c(c2-c2ccnc4ccc(C(N)=O)cc24)CCC3)n1 [Galunisertib] (10 µM)
0: all assays above

CCCS(=O)(=O)N[C@H]1C[C@@H](N(C)c2ncnc3[nH]ccc23)C1 [Abrocitinib] (10 µM)
0: all assays above

NC(=O)c1sc2c([N+](=O)[O-])cc(C(F)(F)F)cc2[n+]1[O-] [Cyclapolin 9] (10 µM)
0: all assays above

Cc1nc(NC(=O)N2CCC[C@H]2C(N)=O)sc1-c1ccnc(C(C)(C)C(F)(F)F)c1 [Alpelisib] (2.5 µM)
0: all assays above

C[C@H](Nc1cc2c(-c3ccc4c(c3)OCO4)noc2cn1)c1ccccc1 (10 µM)
0: all assays above

COc1cc(N2CCC(O)CC2)ccc1Nc1nc(Nc2ccccc2S(=O)(=O)C(C)C)c2[nH]cnc2n1 (10 µM)
0: all assays above

N#Cc1cnc(Nc2cc(NC[C@H]3CNCCO3)c(C(F)(F)F)cn2)cn1 (10 µM)
1: BLK | BRAF
3: ALK
0: all other assays above

COc1cc2nc(NC3CC3)nc(NC3CCN(C(C)C)CC3)c2cc1OC (10 µM)
1: AURKA | BMX | BRAF_V600E
3: BLK
0: all other assays above

CCCCC(=O)OCC(=O)[C@]1(O)Cc2c(O)c3c(c(O)c2[C@@H](O[C@H]2C[C@H](NC(=O)C(F)(F)F)[C@H](O)[C@H](C)O2)C1)C(=O)c1c(OC)cccc1C3=O [Valrubicin] (10 µM)
1: BRAF_V600E
0: all other assays above

C=CC(=O)Nc1cccc(Oc2nc(Nc3ccc(N4CCN(C)CC4)cc3OC)ncc2Cl)c1 (10 µM)
2: BMX
0: all other assays above

O=C1C=CC2=C3c4cc(O)c(O)cc4CC3(O)COC2=C1O (stereo not given) [Hematein] (10 µM)
0: all assays above

O=c1cc(N2CCOCC2)oc2c(-c3cccc4c3sc3ccccc34)cccc12 (10 µM)
0: all assays above

CN(C)c1ccc(/C=C2\C(=O)Nc3ccccc32)c2ccccc12 (10 µM)
0: all assays above

CN1CCC(Nc2ccc(C(=O)Nc3cc(-c4ccc5c(c4)OCO5)[nH]n3)cc2)CC1 (10 µM)
2: AURKB
3: AURKA
1: BRAF_V600E
0: all other assays above

COc1ccc2nc3ccc(OC)cc3c(SCCCN)c2c1 (10 µM)
1: AURKB | BLK | BRAF_V600E
3: ALK | AURKA
0: all other assays above

Nc1ccc(Sc2nc3ccccc3s2)c(Cl)c1 [KRAS inhibitor-9] (10 µM)
0: all assays above

CCOC(=O)c1c(C)[nH]c(C=C2C(=O)Nc3ccccc32)c1C (10 µM)
0: all assays above

CC1(C)C=Cc2c(ccc(C(=O)/C=C/c3ccc(O)cc3)c2O)O1 [4-Hydroxylonchocarpin] (10 µM)
5: BLK
0: all other assays above

CC(C)=CCC[C@](C)(O[C@@H]1O[C@H](CO[C@@H]2O[C@H](CO)[C@@H](O)[C@H](O)[C@H]2O)[C@@H](O)[C@H](O)[C@H]1O)[C@H]1CC[C@]2(C)[C@@H]1[C@H](O)C[C@@H]1[C@@]3(C)CC[C@H](O[C@@H]4O[C@H](CO)[C@@H](O)[C@H](O)[C@H]4O[C@@H]4O[C@H](CO)[C@@H](O)[C@H](O)[C@H]4O)C(C)(C)[C@@H]3CC[C@]12C [Ginsenoside Rb1] (10 µM)
0: all assays above

COc1ccc(CCNCc2ccc(OCc3ccc(Cl)nc3)c(OC)c2)cc1OC [SBE13 (Hydrochloride)] (10 µM)
0: all assays above
